Test results as given in patent publication US20230286995A1, “METABOLICALLY STABLE PYRIMIDINYL DIHYDROQUINOXALINONES AS TUBULIN POLYMERIZATION INHIBITORS” (UNIVERSITY OF TENNESSEE RESEARCH FOUNDATION, priority 2022, published 2023).

Experiments:
MDA-MB-231 = test: Cytotoxicity assay (MTS, 72 h); assay type: cell-based; conditions: Homo sapiens, MDA-MB-231, read-out: IC50 ± SEM (nM) MDA-MB-231
A375/TxR = test: Cytotoxicity assay (MTS, 72 h); assay type: cell-based; conditions: Homo sapiens, Table 2, paclitaxel-resistant, read-out: IC50 ± SEM (nM) A375/TxR
MDA-MB-231/TxR = test: Cytotoxicity assay (MTS, 72 h); assay type: cell-based; conditions: Homo sapiens, read-out: IC50 ± SEM (nM) MDA-MB-231/TxR
MDA-MB-231/VxR = test: Cytotoxicity assay (MTS, 72 h); assay type: cell-based; conditions: Homo sapiens, MDA-MB-231, read-out: IC50 ± SEM (nM) MDA-MB-231/VXR
A549 = test: cells; conditions: Homo sapiens, A549, read-out: IC50 ± SEM (nM) A549

SMILES: COc1cc2c(c(OC)c1OC)-c1ccc(OC)c(=O)cc1[C@@H](NC(C)=O)CC2 [Colchicine, reference compound]
- IC50 (MDA-MB-231): 18.9 ± 3.2 nM
- IC50 (A375/TxR): 23.6 ± 3.2 nM
- IC50 (MDA-MB-231/TxR): 15.8 ± 2.3 nM
- IC50 (MDA-MB-231/VxR): 24 ± 4.4 nM
- IC50 (A549): 77.6 ± 2.1 nM
